Values from PubChem BioAssay AID1259254 (NCATS, 2017).

Assay: 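Genome-wide screen for genes that prevent DNA re-replication in cancer cells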 (primary screen)
Cell system: human HCT116 colorectal cancer cells
Reagents: single siRNA against human genes
Timing: 3 days
Read-out: 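Nuclei stained with Hoechst and imaged; cell-cycle phase assigned by DNA content; G2 share scaled per plate, non-targeting siRNA 0%, GMNN siRNA 100%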
Scale: G2 robust z-score and G2 cells, % of GMNN control: higher = more G2 cells, more excess DNA replication
Hit rule: 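Active siRNAs have a G2 robust z of 5 or more median absolute deviations over the median, which in these data means about 38% or higher of GMNN control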
Shown is an unselected part of about 59,000 reagents tested. In the full data, about 1,550 (2.6%) are marked active. 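G2 share is only a proxy for re-replication; each gene was hit by three separate siRNAs, and active genes were retested.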 A number with no mark means an inactive call. Reagents against one gene are numbered here. Not all columns of the deposit are shown. No sequences are given here. Not stated in the record: the amount of reagent.

RPL10 (ribosomal protein L10) #1
- G2 robust z-score: 1.74
- G2 cells, % of GMNN control: 15.2

RPL10 (ribosomal protein L10) #2
- G2 robust z-score: 4.23
- G2 cells, % of GMNN control: 32.7

RPL10 (ribosomal protein L10) #3
- G2 robust z-score: 1.68
- G2 cells, % of GMNN control: 14.8

MIOX (myo-inositol oxygenase) #1
- G2 robust z-score: 1.79
- G2 cells, % of GMNN control: 15.6

MIOX (myo-inositol oxygenase) #2
- G2 robust z-score: -1.13
- G2 cells, % of GMNN control: -4.97

MIOX (myo-inositol oxygenase) #3
- G2 robust z-score: -0.211
- G2 cells, % of GMNN control: 1.48

SLC6A4 #1
- G2 robust z-score: 1.8
- G2 cells, % of GMNN control: 15.6

SLC6A4 #2
- G2 robust z-score: 4.13
- G2 cells, % of GMNN control: 32

SLC6A4 #3
- G2 robust z-score: 2.33
- G2 cells, % of GMNN control: 19.4

SFSWAP (splicing factor SWAP) #1
- G2 robust z-score: -1.04
- G2 cells, % of GMNN control: -4.37

SFSWAP (splicing factor SWAP) #2
- G2 robust z-score: -0.5
- G2 cells, % of GMNN control: -0.55

SFSWAP (splicing factor SWAP) #3
- G2 robust z-score: 1.73
- G2 cells, % of GMNN control: 15.1

TUBGCP3 (tubulin gamma complex component 3) #1
- G2 robust z-score: 0.61
- G2 cells, % of GMNN control: 7.26

TUBGCP3 (tubulin gamma complex component 3) #2
- G2 robust z-score: 1.51
- G2 cells, % of GMNN control: 13.6

TUBGCP3 (tubulin gamma complex component 3) #3
- G2 robust z-score: 2.42
- G2 cells, % of GMNN control: 20

MAGEC3 (MAGE family member C3) #1
- G2 robust z-score: 1.79
- G2 cells, % of GMNN control: 15.6

MAGEC3 (MAGE family member C3) #2
- G2 robust z-score: 1.38
- G2 cells, % of GMNN control: 12.7

MAGEC3 (MAGE family member C3) #3
- G2 robust z-score: -0.665
- G2 cells, % of GMNN control: -1.71

GABRB3 (gamma-aminobutyric acid type A receptor subunit beta3) #1
- G2 robust z-score: 0.653
- G2 cells, % of GMNN control: 7.56

GABRB3 (gamma-aminobutyric acid type A receptor subunit beta3) #2
- G2 robust z-score: 0.0318
- G2 cells, % of GMNN control: 3.19

GABRB3 (gamma-aminobutyric acid type A receptor subunit beta3) #3
- G2 robust z-score: 4.81
- G2 cells, % of GMNN control: 36.8

SAGE2P (sarcoma antigen 2, pseudogene) #1
- G2 robust z-score: 0.134
- G2 cells, % of GMNN control: 3.91

SAGE2P (sarcoma antigen 2, pseudogene) #2
- G2 robust z-score: -0.499
- G2 cells, % of GMNN control: -0.54

SAGE2P (sarcoma antigen 2, pseudogene) #3
- G2 robust z-score: 3.33
- G2 cells, % of GMNN control: 26.4

2 neighbouring entries already listed, quoted:
SLC6A4 #2
- G2 robust z-score: 4.13
- G2 cells, % of GMNN control: 32

SLC6A4 #3
- G2 robust z-score: 2.33
- G2 cells, % of GMNN control: 19.4
